No constants are given. Whether binding was seen depends on the method and setting. Binding seen in cells or lysates may run through a third protein. Some binding calls cover weakened binding; strength is not graded here.
Experiments:
[1] = molecular target: HOXB7 (human (endogenous in KYSE150 and KYSE450)) (UniProt P09629); assay: co-IP; anti-HOXB7 antibody immobilised on AminoLink Plus Coupling Resin; precleared KYSE150 and KYSE450 lysates incubated overnight at 4°C; eluate blotted with anti-Ku70, anti-Ku80, anti-DNA-PKcs
GST-HOXB7 fusion protein = GST-HOXB7 fusion protein (UniProt P09629); assay: pull-down; GST-tagged HOXB7 immobilised on glutathione agarose; KYSE150 and KYSE450 lysates added, 4°C at least 1 hour; eluate blotted with anti-Ku70, anti-Ku80, anti-DNA-PKcs; only the target purified

Chains of the proteins cited; added tags and fusions are not shown.
UniProt P09629: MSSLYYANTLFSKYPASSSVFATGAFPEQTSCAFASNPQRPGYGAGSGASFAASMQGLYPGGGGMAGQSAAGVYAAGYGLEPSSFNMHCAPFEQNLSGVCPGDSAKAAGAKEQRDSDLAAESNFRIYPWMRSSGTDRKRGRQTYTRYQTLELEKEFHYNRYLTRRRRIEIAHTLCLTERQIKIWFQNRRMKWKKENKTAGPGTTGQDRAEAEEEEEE
UniProt P78527: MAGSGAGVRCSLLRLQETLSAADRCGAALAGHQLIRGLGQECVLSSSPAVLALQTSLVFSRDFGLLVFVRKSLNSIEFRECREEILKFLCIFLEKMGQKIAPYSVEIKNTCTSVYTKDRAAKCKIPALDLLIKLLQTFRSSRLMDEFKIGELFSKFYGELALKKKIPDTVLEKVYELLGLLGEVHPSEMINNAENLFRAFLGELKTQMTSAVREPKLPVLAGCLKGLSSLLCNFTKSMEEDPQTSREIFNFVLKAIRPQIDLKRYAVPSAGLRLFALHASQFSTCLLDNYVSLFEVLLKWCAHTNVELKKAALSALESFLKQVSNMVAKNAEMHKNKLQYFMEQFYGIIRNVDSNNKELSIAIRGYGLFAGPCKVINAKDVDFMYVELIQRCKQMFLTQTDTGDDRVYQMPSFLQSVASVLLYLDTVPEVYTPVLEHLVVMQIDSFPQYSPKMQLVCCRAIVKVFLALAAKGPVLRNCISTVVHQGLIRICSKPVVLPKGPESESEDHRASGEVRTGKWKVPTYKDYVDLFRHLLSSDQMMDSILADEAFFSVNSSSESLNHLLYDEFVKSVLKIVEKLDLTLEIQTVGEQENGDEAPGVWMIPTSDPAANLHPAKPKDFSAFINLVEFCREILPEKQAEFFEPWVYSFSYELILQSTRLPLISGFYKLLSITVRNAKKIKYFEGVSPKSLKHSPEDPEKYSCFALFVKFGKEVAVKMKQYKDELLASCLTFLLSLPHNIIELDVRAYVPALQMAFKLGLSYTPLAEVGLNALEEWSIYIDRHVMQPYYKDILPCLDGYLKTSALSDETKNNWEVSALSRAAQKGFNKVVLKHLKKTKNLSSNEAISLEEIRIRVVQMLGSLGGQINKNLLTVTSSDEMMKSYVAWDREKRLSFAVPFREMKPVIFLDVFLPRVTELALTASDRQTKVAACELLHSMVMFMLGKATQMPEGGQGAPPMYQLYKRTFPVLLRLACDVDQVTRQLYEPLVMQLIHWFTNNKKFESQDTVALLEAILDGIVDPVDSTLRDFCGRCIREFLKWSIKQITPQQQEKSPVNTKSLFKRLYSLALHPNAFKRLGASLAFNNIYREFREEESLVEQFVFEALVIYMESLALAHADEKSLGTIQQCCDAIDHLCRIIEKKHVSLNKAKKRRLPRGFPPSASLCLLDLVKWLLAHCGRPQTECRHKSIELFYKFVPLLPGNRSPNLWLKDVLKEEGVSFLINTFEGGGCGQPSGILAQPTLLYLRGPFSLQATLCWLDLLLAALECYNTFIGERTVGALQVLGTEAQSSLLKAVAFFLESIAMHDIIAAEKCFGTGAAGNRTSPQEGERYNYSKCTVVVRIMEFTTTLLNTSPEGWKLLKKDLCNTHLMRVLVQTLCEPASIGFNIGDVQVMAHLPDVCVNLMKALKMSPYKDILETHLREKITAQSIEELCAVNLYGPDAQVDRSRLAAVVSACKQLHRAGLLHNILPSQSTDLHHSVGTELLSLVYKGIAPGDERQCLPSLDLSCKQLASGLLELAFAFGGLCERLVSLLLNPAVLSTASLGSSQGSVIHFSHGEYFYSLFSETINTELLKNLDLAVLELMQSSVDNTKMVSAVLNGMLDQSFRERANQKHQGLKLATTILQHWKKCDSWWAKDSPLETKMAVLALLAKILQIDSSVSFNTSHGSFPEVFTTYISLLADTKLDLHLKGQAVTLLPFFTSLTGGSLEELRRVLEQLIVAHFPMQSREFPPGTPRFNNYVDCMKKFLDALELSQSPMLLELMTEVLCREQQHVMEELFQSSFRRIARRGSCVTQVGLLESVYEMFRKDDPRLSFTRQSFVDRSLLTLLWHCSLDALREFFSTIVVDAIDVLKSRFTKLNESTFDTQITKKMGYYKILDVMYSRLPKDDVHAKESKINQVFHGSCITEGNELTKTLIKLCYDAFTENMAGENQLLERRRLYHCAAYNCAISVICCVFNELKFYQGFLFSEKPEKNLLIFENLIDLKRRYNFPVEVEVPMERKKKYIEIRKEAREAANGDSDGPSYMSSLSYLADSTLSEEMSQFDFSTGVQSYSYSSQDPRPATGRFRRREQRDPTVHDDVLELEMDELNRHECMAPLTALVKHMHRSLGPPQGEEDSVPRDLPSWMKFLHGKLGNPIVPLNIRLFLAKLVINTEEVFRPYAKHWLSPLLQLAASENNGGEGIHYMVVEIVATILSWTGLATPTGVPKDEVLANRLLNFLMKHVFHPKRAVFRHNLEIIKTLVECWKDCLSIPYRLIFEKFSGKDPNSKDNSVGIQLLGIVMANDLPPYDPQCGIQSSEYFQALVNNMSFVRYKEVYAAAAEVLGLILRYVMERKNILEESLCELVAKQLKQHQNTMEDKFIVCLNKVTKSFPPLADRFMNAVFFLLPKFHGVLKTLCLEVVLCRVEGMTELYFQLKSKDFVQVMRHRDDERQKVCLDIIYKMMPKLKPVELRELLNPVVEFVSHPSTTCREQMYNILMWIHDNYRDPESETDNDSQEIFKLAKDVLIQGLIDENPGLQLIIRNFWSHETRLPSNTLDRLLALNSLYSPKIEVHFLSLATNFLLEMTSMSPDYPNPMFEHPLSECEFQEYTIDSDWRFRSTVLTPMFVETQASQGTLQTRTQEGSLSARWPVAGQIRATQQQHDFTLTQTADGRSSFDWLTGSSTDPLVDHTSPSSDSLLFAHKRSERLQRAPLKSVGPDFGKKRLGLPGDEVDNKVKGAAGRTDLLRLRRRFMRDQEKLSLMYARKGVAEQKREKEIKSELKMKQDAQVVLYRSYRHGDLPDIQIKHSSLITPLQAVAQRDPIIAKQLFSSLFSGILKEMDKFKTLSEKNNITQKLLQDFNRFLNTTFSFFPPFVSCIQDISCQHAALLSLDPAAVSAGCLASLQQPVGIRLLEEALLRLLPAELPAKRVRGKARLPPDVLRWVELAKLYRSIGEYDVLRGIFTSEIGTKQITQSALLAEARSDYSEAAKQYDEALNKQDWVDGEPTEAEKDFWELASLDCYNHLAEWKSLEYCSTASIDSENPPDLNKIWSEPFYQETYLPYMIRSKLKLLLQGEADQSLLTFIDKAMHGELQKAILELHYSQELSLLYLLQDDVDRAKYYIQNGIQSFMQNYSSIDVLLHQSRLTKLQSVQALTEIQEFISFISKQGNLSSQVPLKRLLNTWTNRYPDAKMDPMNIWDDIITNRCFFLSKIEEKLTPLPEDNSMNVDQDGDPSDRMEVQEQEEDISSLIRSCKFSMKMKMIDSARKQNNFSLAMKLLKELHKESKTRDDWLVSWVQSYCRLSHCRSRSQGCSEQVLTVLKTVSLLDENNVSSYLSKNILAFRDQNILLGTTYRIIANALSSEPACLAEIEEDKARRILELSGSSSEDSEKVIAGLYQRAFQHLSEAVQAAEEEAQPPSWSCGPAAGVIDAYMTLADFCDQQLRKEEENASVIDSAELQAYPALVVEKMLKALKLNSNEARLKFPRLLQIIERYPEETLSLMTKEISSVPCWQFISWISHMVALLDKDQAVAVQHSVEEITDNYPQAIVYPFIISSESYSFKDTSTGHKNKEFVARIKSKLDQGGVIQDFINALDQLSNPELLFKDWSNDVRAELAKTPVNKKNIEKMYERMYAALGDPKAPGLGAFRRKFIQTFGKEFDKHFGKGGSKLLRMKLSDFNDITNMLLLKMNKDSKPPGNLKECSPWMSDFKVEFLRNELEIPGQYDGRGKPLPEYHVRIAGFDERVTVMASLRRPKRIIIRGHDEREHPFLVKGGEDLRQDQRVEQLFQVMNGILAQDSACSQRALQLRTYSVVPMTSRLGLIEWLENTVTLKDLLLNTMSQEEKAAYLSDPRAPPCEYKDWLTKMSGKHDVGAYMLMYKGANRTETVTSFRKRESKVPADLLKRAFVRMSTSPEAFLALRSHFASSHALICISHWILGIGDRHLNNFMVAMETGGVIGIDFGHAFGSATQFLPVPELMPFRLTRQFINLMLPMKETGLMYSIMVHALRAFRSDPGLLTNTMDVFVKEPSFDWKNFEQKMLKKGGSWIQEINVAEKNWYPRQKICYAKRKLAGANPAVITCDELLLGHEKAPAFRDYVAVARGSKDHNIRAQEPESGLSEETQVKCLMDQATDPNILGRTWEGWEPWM

- binding [1]: binds
- binding (GST-HOXB7 fusion protein): binds
Substance: DNA-PKcs (from UniProt P78527 1-4128)

From paper PMC7606015
